# Results published in PubChem BioAssay AID624297 (National Center for Advancing Translational Sciences (NCATS), 2012).
# Screen size: about 340,000 compounds; about 6,200 (1.8%) were called active. Inconclusive means that the source gave no clear call. Such entries were picked first, then a sample of the others. The call rests on the fitted dose curve; in most records, active means well fitted activation curve with a large enough effect; inconclusive means small, poorly fitted or top-dose-only effect; inactive means no such curve, though single readings can be large or run the other way. Where the call is inconclusive, the potency comes from a doubtful curve fit.
# Experiment: A quantitative high throughput screen for small molecules that induce DNA re-replication in SW480 colon adenocarcinoma cells. Further: nearly all actives have a fitted effect of over 55% in size. On re-replication activation: % of control where 0% means no effect.
# Conditions: Hoechst DNA content imaging, 48 h; re-replication activation: at 46.1 µM (top of the series) unless noted
# Summary of the method: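 Per well, 250 cells were exposed to pinned compound for 48 hr. Nuclear DNA was visualised with Hoechst (40 min, 37 C) and total object intensity recorded by fluorescence scanning.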
# Potency means the concentration at half of the fitted maximal effect.
Structure (SMILES),re-replication activation,Potency
COc1ccc(NC(=O)CNC(=O)N2CC(=O)Nc3ccccc32)cc1OC,inconclusive: 57.9% [activator],–
COc1ccc(CCNCc2ccc(-c3ccccc3)cc2)cc1OC,–,"inconclusive: 29.1 µM [activator, single point]"
CCCCN(C)CCCNC(=O)c1cc(-c2cccs2)nc2ccccc12,–,"inconclusive: 0.316 µM [activator, full curve, poor fit]"
O=C(COC(=O)CCc1c[nH]c2ccccc12)NCc1ccc2c(c1)OCO2,–,inactive
Cc1ccc2cccc(OCCCOc3ccccc3F)c2n1,–,"inconclusive: 29.1 µM [activator, single point]"
CCN(CC)c1nc(-c2ccccc2)cc(C(F)(F)F)c1C#N,–,"inconclusive: 18.4 µM [activator, single point]"
CC1CC(C)CN(C(=O)CSc2ccsc2[N+](=O)[O-])C1 (stereo not given),–,"inconclusive: 6.51 µM [activator, single point]"
O=[N+]([O-])c1cccc(S(=O)(=O)NCCNS(=O)(=O)c2cccc([N+](=O)[O-])c2)c1,–,inactive
COC(=O)[C@@H](Cc1c[nH]c2ccccc12)NCc1ccc(B(O)O)cc1,–,active: 1.16 µM
COc1ccc(S(=O)(=O)Nc2c(C)nc3nc[nH]n3c2=O)cc1,–,"inconclusive: 0.0092 µM [activator, full curve, poor fit]"
Cc1cccc(NC(=O)c2nc[nH]c2C(=O)NCCCCCNC(=O)OC(C)(C)C)c1,–,"inconclusive: 20.6 µM [activator, partial curve, poor fit]"
CCCCCCCn1c(=N)n(CC(O)c2ccco2)c2ccccc21 (stereo not given),–,inactive
COc1ccc(C(=O)c2cnc3ccccc3c2-c2ccccc2)cc1,–,"inconclusive: 23.1 µM [activator, single point]"
CC[C@]1(C(=O)OC)[C@H]2C(=O)N(C)C(=O)[C@H]2[C@H]2CN=C(SCc3ccc(C#N)cc3)N21,–,"inconclusive: 0.0046 µM [activator, full curve, poor fit]"
Cc1cc(-c2nc3cccnc3s2)ccc1NS(=O)(=O)c1cccs1,–,"inconclusive: 18.4 µM [activator, partial curve]"
COC(=O)c1ccc(CSC2=NCCS2)cc1,–,inactive
CC(C)c1ccccc1NC(=O)C1C2C=CC(C2)C1C(=O)O (stereo not given),–,inactive
C=CCn1c(C(C)NC(=O)c2ccccc2C)n[nH]c1=S (stereo not given),–,inactive
O=C(Nc1c[nH]c(=O)[nH]c1=O)c1ccccc1Cl,–,inactive
Cc1ccc(CNC(=O)Nc2ccc(Cl)cc2)cc1,–,"inconclusive: 29.1 µM [activator, single point]"
COc1ccc(-c2cn(Cc3ccc(C)cc3)nn2)cc1,–,inactive
Cc1ccsc1C=Nc1ccc(O)cc1,–,"inconclusive: 18.4 µM [activator, single point]"
CCCc1nnc(NC(=O)c2ccc(S(=O)(=O)N(C)c3ccccc3OC)cc2)s1,–,inactive

Structure (SMILES),re-replication activation,Potency
CC(C)S(=O)(=O)C/C(N)=N/OC(=O)c1cc(Cl)cc(Cl)c1,–,"inconclusive: 29.1 µM [activator, single point]"
COc1ccccc1-c1nnc(NC(=O)c2ccc(S(=O)(=O)N(C)C)cc2)o1,–,"inconclusive: 22.4 µM [activator, single point]"
CCOc1ccc(C2=CS/C(=C(\C#N)c3nnc4n3CCCCC4)N2CC)cc1,–,inactive
CC(=O)c1ccc(OCc2cc(C(=O)NC3CCCCC3)no2)cc1,–,"inconclusive: 0.731 µM [activator, partial curve, poor fit]"
CC(=O)OCCn1c2nc(=O)[nH]c(=O)c-2nc2cc(C)c(C)cc21,–,inactive
CCCCn1c(=NC(=O)c2ccc3c(c2)OCO3)c(C#N)cc2c(=O)n3cccc(C)c3nc21,–,"inconclusive: 1.46 µM [activator, full curve]"
CN(C(=O)CC1C(=O)NCCN1Cc1c(F)cccc1Cl)C1CCOCC1 (stereo not given),–,"inconclusive: 10.3 µM [activator, partial curve, poor fit]"
CCc1ccc2oc(=O)cc(CN3CCN(c4ccc(F)cc4)CC3)c2c1,–,"inconclusive: 25.9 µM [activator, partial curve, poor fit]"
Cc1cccc(Cl)c1NC(=O)N1CCN(c2ccnc3cc(Cl)ccc23)CC1,–,inactive
CCSc1nnc(-c2ccc(Cl)cc2)c2ccccc12,–,inactive
Cc1ccccc1N/C(=C(/C(Cl)=C(Cl)Cl)[N+](=O)[O-])n1nnc2ccccc21,–,"inconclusive: 23.1 µM [activator, single point]"
CNC(=O)COC(=O)c1cc(-c2ccco2)nc2ccccc12,–,"inconclusive: 29.1 µM [activator, single point]"
Cc1cccc(C(=O)NCC(=O)NC(C)CCc2ccccc2)c1 (stereo not given),–,"inconclusive: 0.92 µM [activator, full curve, poor fit]"
COc1ccc(-c2nc3c(C(=O)NCCN(C)C)cccc3c3ccccc23)cc1,–,"inconclusive: 20.6 µM [activator, single point]"
O=C(CSc1nnc(-c2ccc(S(=O)(=O)N3CCCC3)cc2)o1)NCc1ccccc1,–,"inconclusive: 18.4 µM [activator, single point]"
CO/N=C/c1c(-c2ccc(Cl)cc2)nc2cc(C)ccn12,–,"inconclusive: 29.1 µM [activator, single point]"
O=C(COC(=O)C1CC2C=CC1C2)NCc1ccco1 (stereo not given),–,inactive
COc1ccc(-c2coc3cc(O[C@@H]4O[C@H](CO)[C@@H](O)[C@H](O)[C@H]4O)ccc3c2=O)cc1,inactive: 23% [at 9.22 µM],–
CN(C)S(=O)(=O)c1ccc(Cl)c(NC(=O)CSc2nc3c(cc2C#N)C(=O)CCC3)c1,–,active: 2.59 µM
C=CC(=O)Nc1ccc(N(C)c2ccnc(Nc3ccc(N4CCN(C)CC4)cc3)n2)cc1,–,"inconclusive: 6.51 µM [activator, single point]"
COc1cccc(C(=S)N2CCOCC2)c1OS(=O)(=O)c1ccc(Cl)cc1,–,"inconclusive: 29.1 µM [activator, partial curve, poor fit]"
COc1ccc(-n2c(-c3ccc(Cl)cc3)c[n+]3c2CCCCC3)cc1,–,inactive

# Two entries from above in a different format:
Structure (SMILES) | re-replication activation | Potency
CC(=O)OCCn1c2nc(=O)[nH]c(=O)c-2nc2cc(C)c(C)cc21 | – | inactive
CN(C)S(=O)(=O)c1ccc(Cl)c(NC(=O)CSc2nc3c(cc2C#N)C(=O)CCC3)c1 | – | active: 2.59 µM
